This series relates to rats. As to the kind of experiment: Physical dependence test: induced withdrawal test for the rats. The following applies: morphine hydrochloride sc twice a day, increasing 5 to 60 mg/kg, 7 days; naloxone 5 mg/kg ip day 8. How it is done: The compound group was administered (ig) twice a day according to the dose increasing principle, at daily doses of 0.5, 1.0, 1.5, 2.0, 2.5, 3.0 g/kg. The dose was increased every day from 0.5 g/kg to 3.0 g/kg on day 6 which was adopted the same on day 7. The negative control group was given (ig) the same volume of vegetable oil per day at the same time and for the same times as the compound group. On day 8, the rats in each group were given naloxone (5 mg/kg, ip) to induce withdrawal, and the withdrawal status of the rats within 30 min and the weight change one hour before and after the inducement were observed. The evaluation criteria of withdrawal symptoms of rats were established by referring to the Tomoji Yanagita evaluation criteria and our pre-experimental results (see Appendix Table 17). The withdrawal scores and weight loss values of each group of rats were statistically processed. Weight loss value=weight before inducement−weight after inducement.

Data on one molecule can be found in patent US11000555B2, “Method for preparing a limax compound and therapeutic use thereof” (GUANGXI JIUFU BIOTECHNOLOGY CO., LTD, priority 2017, dated 2021).

On to `CN1CC[C@]23c4c5ccc(O)c4O[C@H]2[C@@H](O)C=C[C@H]3[C@H]1C5.Cl` [Morphine, Morphine hydrochloride], for which the Weight loss was determined as 9.5 ± 3.62 g.
